# Results reported in publication PMC7290032.
# Amino acid sequences for entries named in this document (tags omitted).
# UniProt P27694: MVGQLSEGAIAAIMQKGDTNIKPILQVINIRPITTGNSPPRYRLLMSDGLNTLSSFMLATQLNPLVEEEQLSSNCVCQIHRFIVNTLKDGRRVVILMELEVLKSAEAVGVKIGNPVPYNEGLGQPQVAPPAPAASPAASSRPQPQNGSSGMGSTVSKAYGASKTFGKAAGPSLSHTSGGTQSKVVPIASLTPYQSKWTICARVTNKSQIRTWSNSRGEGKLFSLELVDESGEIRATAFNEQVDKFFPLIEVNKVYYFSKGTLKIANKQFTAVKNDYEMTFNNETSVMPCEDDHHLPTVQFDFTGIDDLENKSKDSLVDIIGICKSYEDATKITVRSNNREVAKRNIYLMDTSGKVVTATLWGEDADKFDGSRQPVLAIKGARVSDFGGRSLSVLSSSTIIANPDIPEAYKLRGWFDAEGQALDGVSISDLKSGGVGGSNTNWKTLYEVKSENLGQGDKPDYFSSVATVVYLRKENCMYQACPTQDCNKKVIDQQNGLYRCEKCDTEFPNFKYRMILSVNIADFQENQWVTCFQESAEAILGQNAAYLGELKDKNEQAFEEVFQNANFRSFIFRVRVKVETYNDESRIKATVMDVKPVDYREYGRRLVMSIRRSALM
# UniProt P15927: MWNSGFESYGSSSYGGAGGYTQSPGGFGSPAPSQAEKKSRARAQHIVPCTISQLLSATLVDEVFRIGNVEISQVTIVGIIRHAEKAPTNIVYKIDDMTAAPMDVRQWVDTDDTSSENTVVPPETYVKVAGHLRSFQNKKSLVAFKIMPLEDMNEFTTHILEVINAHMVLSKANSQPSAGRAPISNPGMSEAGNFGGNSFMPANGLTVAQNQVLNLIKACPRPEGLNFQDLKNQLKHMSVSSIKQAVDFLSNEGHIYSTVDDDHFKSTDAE
# No constants are given. Whether binding was seen depends on the method and setting. In cells and extracts the contact can be indirect. These calls come from enrichment with a bait or labelling near it, and not all partners need be listed. For part of these data: Where a sequence is shown, tags or fusion partners need not be part of it.
# Tests used:
# MCM8IP-HA (human) = target: T1, MCM8IP-HA (human) (UniProt Q8N3J3); assay: affinity purification with mass spectrometry; anti-HA immunoprecipitation from HEK293T stably expressing MCM8IP-FLAG-HA against GFP-FLAG-HA; gel slices, LC-MS/MS; at least 5-fold enriched
# T1 sequence: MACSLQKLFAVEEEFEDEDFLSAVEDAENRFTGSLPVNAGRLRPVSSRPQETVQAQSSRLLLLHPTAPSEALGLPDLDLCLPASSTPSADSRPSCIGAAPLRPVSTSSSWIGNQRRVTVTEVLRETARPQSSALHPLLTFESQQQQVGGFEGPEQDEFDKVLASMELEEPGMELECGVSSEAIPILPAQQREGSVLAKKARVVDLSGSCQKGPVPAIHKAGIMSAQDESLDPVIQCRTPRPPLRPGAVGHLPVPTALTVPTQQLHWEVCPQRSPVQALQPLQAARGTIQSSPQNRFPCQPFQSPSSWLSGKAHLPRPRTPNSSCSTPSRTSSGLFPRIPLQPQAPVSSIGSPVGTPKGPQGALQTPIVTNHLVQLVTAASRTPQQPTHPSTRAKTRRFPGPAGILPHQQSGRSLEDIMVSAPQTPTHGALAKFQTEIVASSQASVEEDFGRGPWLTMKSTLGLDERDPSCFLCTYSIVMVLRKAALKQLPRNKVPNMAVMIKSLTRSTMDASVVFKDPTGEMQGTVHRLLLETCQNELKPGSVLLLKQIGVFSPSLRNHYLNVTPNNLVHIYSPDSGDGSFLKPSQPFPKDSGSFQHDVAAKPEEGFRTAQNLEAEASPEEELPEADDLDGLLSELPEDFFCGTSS
# BirA*-MCM8IP (human) = target: T2, BirA*-MCM8IP (human) (UniProt Q8N3J3); assay: proximity labelling; BioID with mass spectrometry: BirA*-MCM8IP or MCM8IP-BirA* against BirA* alone in HU-treated HEK293T T-REx; RIPA lysis, streptavidin beads; at least 5-fold enriched
# T2 sequence: T1 sequence
# MCM8IP-BirA* (human) = target: T3, MCM8IP-BirA* (human) (UniProt Q8N3J3); assay: as above
# T3 sequence: T1 sequence
binding (MCM8IP-HA (human)),binding (BirA*-MCM8IP (human)),binding (MCM8IP-BirA* (human)),Substance
binds,binds,binds,RPA1 (from UniProt P27694 1-616)
binds,binds,binds,RPA2 (from UniProt P15927 1-270)
